Results are given in words; binding and its absence hold for the method and conditions named. For part of these data: In cells and extracts the contact can be indirect. Sequences can lack the tags named with a protein. Some entries that bind do so weakly or less than the wild type.
T1: Trs20 (subunit of the recombinant TRAPPIII complex) (S. cerevisiae) (UniProt P38334)
T1 sequence: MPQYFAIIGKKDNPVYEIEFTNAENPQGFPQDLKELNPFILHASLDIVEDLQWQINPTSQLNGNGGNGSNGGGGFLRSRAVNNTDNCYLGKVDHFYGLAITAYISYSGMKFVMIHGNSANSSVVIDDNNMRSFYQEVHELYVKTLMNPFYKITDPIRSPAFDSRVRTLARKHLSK

By UniProt entry, the sequences of proteins in these tests, tags left out. Where a name states a change or a piece, a line headed by the entry shows the natural chain unless it says otherwise.
UniProt Q03337, whole entry: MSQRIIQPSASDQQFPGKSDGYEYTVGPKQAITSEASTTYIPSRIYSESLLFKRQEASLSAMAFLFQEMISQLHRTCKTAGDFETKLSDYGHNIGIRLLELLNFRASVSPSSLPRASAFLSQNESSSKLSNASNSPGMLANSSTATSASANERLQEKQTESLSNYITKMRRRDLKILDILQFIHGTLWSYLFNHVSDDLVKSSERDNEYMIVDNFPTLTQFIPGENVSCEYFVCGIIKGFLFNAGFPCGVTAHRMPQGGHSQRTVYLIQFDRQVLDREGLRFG

T2: Trs85-mNeonGreen quadruple alanine mutant (Arg618, Arg619, Arg620, Lys621 to alanine) (S. cerevisiae) (UniProt P46944)
T2 sequence: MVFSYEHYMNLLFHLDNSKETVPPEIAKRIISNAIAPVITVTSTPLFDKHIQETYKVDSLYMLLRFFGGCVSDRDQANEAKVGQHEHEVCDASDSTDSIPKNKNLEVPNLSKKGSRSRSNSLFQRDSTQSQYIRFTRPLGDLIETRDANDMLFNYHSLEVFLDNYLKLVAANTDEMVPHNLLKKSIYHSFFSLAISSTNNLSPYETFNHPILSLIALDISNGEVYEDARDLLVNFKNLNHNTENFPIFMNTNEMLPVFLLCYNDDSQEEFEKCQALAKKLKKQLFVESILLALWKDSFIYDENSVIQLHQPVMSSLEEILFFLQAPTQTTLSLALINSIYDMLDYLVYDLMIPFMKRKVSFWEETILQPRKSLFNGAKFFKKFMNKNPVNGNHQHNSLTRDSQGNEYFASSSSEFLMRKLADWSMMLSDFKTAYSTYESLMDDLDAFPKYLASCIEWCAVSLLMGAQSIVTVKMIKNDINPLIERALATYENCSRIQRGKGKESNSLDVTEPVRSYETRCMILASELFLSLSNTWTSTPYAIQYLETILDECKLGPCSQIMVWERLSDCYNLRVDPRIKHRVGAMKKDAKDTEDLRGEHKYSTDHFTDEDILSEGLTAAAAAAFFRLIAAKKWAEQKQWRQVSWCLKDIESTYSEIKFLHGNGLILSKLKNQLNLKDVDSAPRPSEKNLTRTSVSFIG

T3: Trs85-mNeonGreen R620E (S. cerevisiae) (UniProt P46944)
T3 sequence: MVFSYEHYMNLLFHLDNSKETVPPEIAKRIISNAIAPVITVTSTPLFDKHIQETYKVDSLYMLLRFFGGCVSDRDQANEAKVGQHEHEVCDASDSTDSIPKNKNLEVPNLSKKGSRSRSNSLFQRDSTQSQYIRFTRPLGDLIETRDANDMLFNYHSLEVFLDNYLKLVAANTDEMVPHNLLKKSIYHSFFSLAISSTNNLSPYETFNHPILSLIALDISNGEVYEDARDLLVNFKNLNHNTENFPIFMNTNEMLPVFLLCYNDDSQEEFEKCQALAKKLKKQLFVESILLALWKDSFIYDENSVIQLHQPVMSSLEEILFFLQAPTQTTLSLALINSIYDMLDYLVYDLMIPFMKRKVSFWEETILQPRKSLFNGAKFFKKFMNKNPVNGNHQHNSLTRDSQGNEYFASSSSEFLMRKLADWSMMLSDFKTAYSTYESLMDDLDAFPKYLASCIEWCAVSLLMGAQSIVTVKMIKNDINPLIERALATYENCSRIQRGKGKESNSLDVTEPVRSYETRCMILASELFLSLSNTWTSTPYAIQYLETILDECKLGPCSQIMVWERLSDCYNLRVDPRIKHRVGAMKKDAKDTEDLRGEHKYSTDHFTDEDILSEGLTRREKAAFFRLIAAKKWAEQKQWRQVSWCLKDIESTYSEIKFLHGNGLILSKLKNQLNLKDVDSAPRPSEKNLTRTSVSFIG


Tests used:
[1] = molecular target: T1, Trs20 (subunit of the recombinant TRAPPIII complex) (S. cerevisiae); assay: cross-linking
[2] = molecular target: Trs31 (subunit of the recombinant TRAPPIII complex) (S. cerevisiae) (UniProt Q03337); assay: cross-linking
[3] = molecular target: T1, Trs20 (subunit of the recombinant TRAPPIII complex) (S. cerevisiae); assay: cryo-EM structure
[4] = molecular target: Trs31 (subunit of the recombinant TRAPPIII complex) (S. cerevisiae) (UniProt Q03337); assay: cryo-EM structure
[5] = molecular target: T2, Trs85-mNeonGreen quadruple alanine mutant (Arg618, Arg619, Arg620, Lys621 to alanine) (S. cerevisiae); assay: co-IP
[6] = molecular target: T3, Trs85-mNeonGreen R620E (S. cerevisiae); assay: co-IP

Row | binding [1] | binding [2] | binding [3] | binding [4] | binding [5] | binding [6] | Binder
1 | binds | binds | binds | binds |  |  | Trs85 (His6-Trs85, subunit of the recombinant TRAPPIII complex) (protein, UniProt P46944 1-698) MVFSYEHYMNLLFHLDNSKETVPPEIAKRIISNAIAPVITVTSTPLFDKHIQETYKVDSLYMLLRFFGGCVSDRDQANEAKVGQHEHEVCDASDSTDSIPKNKNLEVPNLSKKGSRSRSNSLFQRDSTQSQYIRFTRPLGDLIETRDANDMLFNYHSLEVFLDNYLKLVAANTDEMVPHNLLKKSIYHSFFSLAISSTNNLSPYETFNHPILSLIALDISNGEVYEDARDLLVNFKNLNHNTENFPIFMNTNEMLPVFLLCYNDDSQEEFEKCQALAKKLKKQLFVESILLALWKDSFIYDENSVIQLHQPVMSSLEEILFFLQAPTQTTLSLALINSIYDMLDYLVYDLMIPFMKRKVSFWEETILQPRKSLFNGAKFFKKFMNKNPVNGNHQHNSLTRDSQGNEYFASSSSEFLMRKLADWSMMLSDFKTAYSTYESLMDDLDAFPKYLASCIEWCAVSLLMGAQSIVTVKMIKNDINPLIERALATYENCSRIQRGKGKESNSLDVTEPVRSYETRCMILASELFLSLSNTWTSTPYAIQYLETILDECKLGPCSQIMVWERLSDCYNLRVDPRIKHRVGAMKKDAKDTEDLRGEHKYSTDHFTDEDILSEGLTRRRKAAFFRLIAAKKWAEQKQWRQVSWCLKDIESTYSEIKFLHGNGLILSKLKNQLNLKDVDSAPRPSEKNLTRTSVSFIG
2 |  |  |  |  | no binding | no binding | Trs23-6xHis-3xFLAG (expressed in yeast) (protein, UniProt Q03784 1-219) MAIETILVINKSGGLIYQRNFTNDEQKLNSNEYLILASTLHGVFAIASQLTPKALQLTQQTNIENTIPYIPYVGMSSNRSDTRNGGGNNNKHTNNEKLGSFKGDDFFKEPFTNWNKSGLRQLCTDQFTMFIYQTLTGLKFVAISSSVMPQRQPTIATTDKPDRPKSTSNLAIQIADNFLRKVYCLYSDYVMKDPSYSMEMPIRSNLFDEKVKKMVENLQ

Source: paper doi:10.1101/2020.10.08.332312
